From paper PMC5951923
Results are given in words; binding and its absence hold for the method and conditions named. In cells and extracts the contact can be indirect. Some results given as binding are weak or reduced against the parent protein; the word gives no strength.

Biological target: T1, caveolin-1 (mouse (endogenous in trachea and lung)) (UniProt P49817)
T1 sequence: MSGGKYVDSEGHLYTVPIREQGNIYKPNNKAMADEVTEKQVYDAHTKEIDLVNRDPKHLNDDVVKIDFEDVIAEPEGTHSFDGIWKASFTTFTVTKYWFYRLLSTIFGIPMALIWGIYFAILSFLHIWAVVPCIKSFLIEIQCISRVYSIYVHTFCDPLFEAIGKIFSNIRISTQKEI
Assay: co-IP; 2 mg total tissue homogenate (octylglucoside lysis buffer: 10 mM Tris-HCl pH 7.4, 50 mM NaCl, 60 mM octylglucoside, 1% Triton X100) incubated with 1 µg anti-cav-1 antibody in PBS + 0.02% Tween-20 at 4 °C overnight, protein G dynabeads 4 h at 4 °C, three washes; immunoblot for cav-3; trachea and lung, heart and skeletal muscle as positive controls

binding: binds
B1: caveolin-3 (protein, UniProt P51637 1-151)
chain: MMTEEHTDLEARIIKDIHCKEIDLVNRDPKNINEDIVKVDFEDVIAEPEGTYSFDGVWKVSFTTFTVSKYWCYRLLSTLLGVPLALLWGFLFACISFCHIWAVVPCIKSYLIEIQCISHIYSLCIRTFCNPLFAALGQVCSNIKVVLRREG
